Record: PubChem BioAssay AID1259300 (Sanger Institute, 2017)
Aim: 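siRNA screen of kinases and common colorectal cancer mutant genes, alone or with drugs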 (primary screen). System: HCT15 colorectal cancer cells. Reagents: siRNA pool against human genes. Conditions: anchor drug or DMSO vehicle added 24 h after seeding: BYL719 1 µM, cetuximab 5 µg/ml, trametinib 10 nM; drug doses chosen to barely affect viability alone. Measurement: 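Replicate-mean viability relative to non-targeting pool control with robust z-score for knock-down without drug; per-drug synergy scores for BYL719 (1 µM), cetuximab (5 µg/ml), trametinib (10 nM)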. Direction: viability z-score, siRNA alone: higher = more viable cells after knock-down; viability vs non-targeting, siRNA alone: higher = more viable cells; synergy score with BYL719 and synergy score with cetuximab and synergy score with trametinib: higher = stronger synergy of knock-down with drug. Hit rule: 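Called active (essential) if viability z-score with knock-down alone falls below -3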. Meaning of the calls: active = essential: knock-down alone lowers viability (z below -3); inactive = no strong viability loss with knock-down alone.
This is a random part of 794 reagents. 18 of all reagents (2.3%) were called active. 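Calls rest on knock-down alone, not drug synergy; depositor treated synergy scores above 0.15 as synergistic; drug doses alone had little viability effect.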 A number with no mark means an inactive call. No viability above 1 is reported: the scale is capped. No sequences are given here. Not given: the amount of reagent, the time to read-out.

Target gene,"viability z-score, siRNA alone","viability vs non-targeting, siRNA alone",synergy score with BYL719,synergy score with cetuximab,synergy score with trametinib
EPHB2 (GeneID 2048),0.625,1,-0.0374,0.0415,-0.0562
CDK10 (GeneID 8558),0.625,1,0.116,0.0532,-0.0936
PKIB (GeneID 5570),0.625,1,0.0916,0.0293,-0.0984
DLG3 (GeneID 1741),-1.55,0.842,-0.000903,-0.0787,-0.0844
RNASEL (GeneID 6041),0.625,1,0.13,0.0822,0.0394
PHKA2 (GeneID 5256),-0.72,0.902,0.0162,-0.00715,-0.187
STK25 (GeneID 10494),-0.649,0.907,0.0966,-0.0926,-0.13
RPS6KL1 (GeneID 83694),0.625,1,0.139,0,-0.0746
ITSN1 (GeneID 6453),0.453,0.988,0.15,0.0789,0.0237
TP53RK (GeneID 112858),0.625,1,0.298,0.116,0.0799
SRP72 (GeneID 6731),-3.06 (active),0.732,-0.0371,-0.125,-0.151
PDK3 (GeneID 5165),-0.063,0.95,0.17,-0.0363,-0.122
PTK6 (GeneID 5753),0.625,1,-0.085,0.105,-0.0803
BRAF (GeneID 673),0.518,0.992,0.191,0.0706,0.169
MAST4 (GeneID 375449),0.445,0.987,-0.0358,-0.013,-0.11
DGKB (GeneID 1607),0.224,0.971,0.0812,0.0418,0.000993
PRKG1 (GeneID 5592),-0.596,0.911,-0.0725,-0.0888,-0.145
ERN1 (GeneID 2081),0.122,0.963,0.25,0.0409,0.0677
NRK (GeneID 203447),0.625,1,0.112,0.111,0.0981
MAP3K1 (GeneID 4214),-0.312,0.932,0.0956,0.0349,-0.15

Sorted by “synergy score with trametinib” (high to low): some entries from above
Target gene,"viability z-score, siRNA alone","viability vs non-targeting, siRNA alone",synergy score with BYL719,synergy score with cetuximab,synergy score with trametinib
ITSN1 (GeneID 6453),0.453,0.988,0.15,0.0789,0.0237
RPS6KL1 (GeneID 83694),0.625,1,0.139,0,-0.0746
